Record: PubChem BioAssay AID1508588 (Peter MacCallum Cancer Centre, 2020)
This is a random part of about 18,000 deposited reagents. 790 of them (4.4%) were called active. 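Calls rest on a combination of fold-change classes in drug and vehicle arms, not all shown here.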 Entries without a mark were called inactive.

- Assay: 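Genome-wide search for knock-downs that heighten vemurafenib action in melanoma cells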 (primary screen)
- System: human WM266.4 melanoma cells (BRAF V600 mutant)
- Reagent: siRNA pool against human genes, 40 nM
- Timing: 96 h from transfection to read-out
- Treatment: vemurafenib 300 nM (about IC25), added 48 h after transfection, for 48 h; comparison arm got DMSO vehicle only
- Measured: 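Ratios to non-targeting siRNA for cell gain, counted as DAPI nuclei after minus before drug and averaged over two replicates, and for absorbance-read medium lactate per cell; both binned into fold-change classes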
- Scale: cell gain with vemurafenib: higher = more cell gain than with non-targeting siRNA; lactate per cell with vemurafenib: higher = more lactate made per cell
- Call rule: 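Enhancement is called by pairing each knock-down's vehicle-arm and drug-arm fold-change classes for viability or glycolysis; which class combinations qualify is not given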
- Calls: active = enhances vemurafenib effect; inactive = no enhancement seen

DDX25
- cell gain with vemurafenib: 0.57
- lactate per cell with vemurafenib: 1.13

CLEC4A
- cell gain with vemurafenib: 0.11
- lactate per cell with vemurafenib: 0.86

LOC652591 (retired record)
- cell gain with vemurafenib: 0.56
- lactate per cell with vemurafenib: 0.76

PAIP1
- cell gain with vemurafenib: 0.76
- lactate per cell with vemurafenib: 1.1

OR9Q2
- cell gain with vemurafenib: 0.49
- lactate per cell with vemurafenib: 0.78

WASHC2C
- cell gain with vemurafenib: 0.8 (active)
- lactate per cell with vemurafenib: 0.32

KIF3B
- cell gain with vemurafenib: 0.7
- lactate per cell with vemurafenib: 0.88

OTUD4
- cell gain with vemurafenib: 0.79
- lactate per cell with vemurafenib: 0.92

SIGLEC6
- cell gain with vemurafenib: 1
- lactate per cell with vemurafenib: 0.53

MOGAT2
- cell gain with vemurafenib: 0.69
- lactate per cell with vemurafenib: 0.74

DSG4
- cell gain with vemurafenib: 0.17
- lactate per cell with vemurafenib: 0.66

CMBL
- cell gain with vemurafenib: 0.85
- lactate per cell with vemurafenib: 0.65

MYLK3
- cell gain with vemurafenib: 0.66
- lactate per cell with vemurafenib: 1.29

CA12
- cell gain with vemurafenib: 0.74
- lactate per cell with vemurafenib: 1.05

FNDC3A
- cell gain with vemurafenib: 0.69
- lactate per cell with vemurafenib: 0.8

PLA2R1
- cell gain with vemurafenib: 0.31
- lactate per cell with vemurafenib: 1.35

CTIF
- cell gain with vemurafenib: 0.23
- lactate per cell with vemurafenib: 2.32

KCNE5
- cell gain with vemurafenib: 0.36
- lactate per cell with vemurafenib: 0.94

MFSD11
- cell gain with vemurafenib: 0.68
- lactate per cell with vemurafenib: 1.19

CPT2
- cell gain with vemurafenib: 0.96
- lactate per cell with vemurafenib: 0.55

AHNAK
- cell gain with vemurafenib: 0.74
- lactate per cell with vemurafenib: 0.83

RNF4
- cell gain with vemurafenib: 1.02
- lactate per cell with vemurafenib: 0.86

C6orf58
- cell gain with vemurafenib: 0.98
- lactate per cell with vemurafenib: 1.23

BET1
- cell gain with vemurafenib: 0.43
- lactate per cell with vemurafenib: 1.3

NSDHL
- cell gain with vemurafenib: 0.56
- lactate per cell with vemurafenib: 0.4

ZPBP2
- cell gain with vemurafenib: 0.92
- lactate per cell with vemurafenib: 0.87

ATP10A
- cell gain with vemurafenib: 0.66
- lactate per cell with vemurafenib: 0.96

EFHC2
- cell gain with vemurafenib: 0.71
- lactate per cell with vemurafenib: 0.86

EGR1
- cell gain with vemurafenib: 1.05
- lactate per cell with vemurafenib: 0.72

MDH2
- cell gain with vemurafenib: 0.85
- lactate per cell with vemurafenib: 0.65

CDK5R1
- cell gain with vemurafenib: 0.81
- lactate per cell with vemurafenib: 1.62

TCF7L2
- cell gain with vemurafenib: 0.88
- lactate per cell with vemurafenib: 0.66

IP6K2
- cell gain with vemurafenib: 0.6
- lactate per cell with vemurafenib: 1.51

ZDHHC13
- cell gain with vemurafenib: 0.37
- lactate per cell with vemurafenib: 0.82

OR9A2
- cell gain with vemurafenib: 0.58
- lactate per cell with vemurafenib: 1.12

MTMR14
- cell gain with vemurafenib: 0.51
- lactate per cell with vemurafenib: 0.71

SETD7
- cell gain with vemurafenib: 0.57
- lactate per cell with vemurafenib: 0.93

EPHB2
- cell gain with vemurafenib: 1.06
- lactate per cell with vemurafenib: 1.01

CST1
- cell gain with vemurafenib: 0.08
- lactate per cell with vemurafenib: 1.02

SLC32A1
- cell gain with vemurafenib: 1.11
- lactate per cell with vemurafenib: 0.6

Reagents listed so far marked active, once more:
WASHC2C
- cell gain with vemurafenib: 0.8 (active)
- lactate per cell with vemurafenib: 0.32
